The text below walks through data of publication PMC7035317.

The target of data set [1] is T1, native CPD photolyase Sasanishiki (P78-Q126-G283-Q296) (Oryza sativa ssp. japonica cv. Sasanishiki) (UniProt Q6F6A2).
T1 sequence (looked up, limits assumed): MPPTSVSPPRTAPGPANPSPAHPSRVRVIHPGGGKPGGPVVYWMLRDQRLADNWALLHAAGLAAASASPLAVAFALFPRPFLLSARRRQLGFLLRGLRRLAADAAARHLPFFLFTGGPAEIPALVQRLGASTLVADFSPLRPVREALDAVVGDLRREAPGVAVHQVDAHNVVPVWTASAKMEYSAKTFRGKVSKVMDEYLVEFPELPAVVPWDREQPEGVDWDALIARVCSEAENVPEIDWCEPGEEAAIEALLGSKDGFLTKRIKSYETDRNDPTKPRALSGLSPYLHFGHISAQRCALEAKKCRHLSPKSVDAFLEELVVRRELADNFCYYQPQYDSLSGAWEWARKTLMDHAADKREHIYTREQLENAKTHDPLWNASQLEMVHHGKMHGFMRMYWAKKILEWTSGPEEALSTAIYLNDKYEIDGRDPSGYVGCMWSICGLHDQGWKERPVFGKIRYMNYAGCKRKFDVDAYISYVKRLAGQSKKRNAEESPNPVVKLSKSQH
In words: pull-down (DNA affinity purification). The note with it: dim red light, strand 2 UV-irradiated (254 nm, 8 h), CPDs at undefined positions, Bead purification: same buffer plus 10% glycerol, 4 C, native protein, label: 5'-biotin on strand 1, streptavidin beads.

Data set [2] addresses T2, native CPD photolyase Norin 1 (P78-R126-G283-Q296) (Oryza sativa ssp. japonica cv. Norin 1) (UniProt Q6F6A2).
T2 sequence (looked up, limits assumed): T1 sequence (looked up, limits assumed) with Q126R
In words: pull-down (DNA affinity purification). Particulars: dim red light, strand 2 UV-irradiated (254 nm, 8 h), CPDs at undefined positions, Bead purification: same buffer plus 10% glycerol, 4 C, native protein, label: 5'-biotin on strand 1, streptavidin beads.

In data set [3] the target is T3, native CPD photolyase Surjamkhi (Sur-type, P78-R126-G283-H296) Q296H (Oryza sativa ssp. indica cv. Surjamkhi) (UniProt Q6F6A2).
T3 sequence (looked up, limits assumed): T1 sequence (looked up, limits assumed) with Q126R, Q296H
In words: pull-down (DNA affinity purification). The note with it: dim red light, strand 2 UV-irradiated (254 nm, 8 h), CPDs at undefined positions, Bead purification: same buffer plus 10% glycerol, 4 C, native protein, label: 5'-biotin on strand 1, streptavidin beads.

For data set [4], the target named is T4, native CPD photolyase TOG12380 (P78-R126-A283-Q296) G283A (Oryza glaberrima TOG12380) (UniProt Q6F6A2).
T4 sequence (looked up, limits assumed): T1 sequence (looked up, limits assumed) with Q126R, G283A
Briefly: pull-down (DNA affinity purification). The note with it: dim red light, strand 2 UV-irradiated (254 nm, 8 h), CPDs at undefined positions, Bead purification: same buffer plus 10% glycerol, 4 C, native protein, label: 5'-biotin on strand 1, streptavidin beads.

Data set [5] deals with T5, native CPD photolyase TOB7307 (S78-R126-A283-Q296) P78S,G283A (Oryza barthii TOB7307) (UniProt Q6F6A2).
T5 sequence (looked up, limits assumed): T1 sequence (looked up, limits assumed) with P78S, Q126R, G283A
In words: pull-down (DNA affinity purification). Particulars: dim red light, strand 2 UV-irradiated (254 nm, 8 h), CPDs at undefined positions, Bead purification: same buffer plus 10% glycerol, 4 C, native protein, label: 5'-biotin on strand 1, streptavidin beads.

The target in data set [6] is T6, native CPD photolyase TOS7940 (Sur-type, P78-R126-G283-H296) Q296H (UniProt Q6F6A2).
T6 sequence (looked up, limits assumed): T1 sequence (looked up, limits assumed) with Q126R, Q296H
In words: pull-down (DNA affinity purification). The note with it: dim red light, strand 2 UV-irradiated (254 nm, 8 h), CPDs at undefined positions, Bead purification: same buffer plus 10% glycerol, 4 C, native protein, label: 5'-biotin on strand 1, streptavidin beads.

Data set [7] concerns the target T7, CPD photolyase Sasanishiki-type (P78-Q126-G283-Q296) (Oryza sativa ssp. japonica cv. Sasanishiki) (UniProt Q6F6A2).
T7 sequence (looked up, limits assumed): T1 sequence (looked up, limits assumed)
Briefly: EMSA. The note with it: dark, 2 mM DTT, 80 mM NaCl, 25 C, 15 min, 0.3 pmol DNA, 0-400 ng protein, recombinant protein, protein details: N-terminal GST, removed by thrombin, label: 5'-32P on strand 1. (In general: Mobility shift assays separate free from complexed probe on a gel.)

Positions count from the first letter of the chain named. Construct, isoform or probe ends are uncertain for at least one entry. For some assays here: Negatives hold for the conditions tested. Protein sequences can lack the tags named with them. For some assays here: At least one verdict was read from the data and is not stated in words by the source.

Take “ATGGCGCCAGACGTACTAATGTGTATACACGCGTGCATGATC (double strand) [UV-irradiated 42-mer duplex on magnetic beads]”: the binding result in data set [1], in data set [2], in data set [3], in data set [4], in data set [5] and in data set [6] was “binds” in each case.

As to “CACGTACGCATCTTCTACGTACCGACAGTC (double strand) [30-mer duplex with thymine dimer (CPD)]”, the binding result in data set [7] (central thymine dimer (CPD) in strand 1, only central TT is T13-T14, EMSA: 40 mM potassium phosphate pH 7.2, 5 mM EDTA) is reported as “binds”.

Regarding “CACGTACGCATCTTCTACGTACCGACAGTC (double strand) [30-mer duplex without CPD]”, in data set [7] (EMSA: 40 mM potassium phosphate pH 7.2, 5 mM EDTA), the binding result was “no binding”.
